# According to the supplement of paper PMC10849652:
# The chains behind the UniProt entries cited, without tags or fusion partners. Where a name states a change or a piece, a line headed by the entry shows the natural chain unless it says otherwise.
# UniProt Q9NRM2: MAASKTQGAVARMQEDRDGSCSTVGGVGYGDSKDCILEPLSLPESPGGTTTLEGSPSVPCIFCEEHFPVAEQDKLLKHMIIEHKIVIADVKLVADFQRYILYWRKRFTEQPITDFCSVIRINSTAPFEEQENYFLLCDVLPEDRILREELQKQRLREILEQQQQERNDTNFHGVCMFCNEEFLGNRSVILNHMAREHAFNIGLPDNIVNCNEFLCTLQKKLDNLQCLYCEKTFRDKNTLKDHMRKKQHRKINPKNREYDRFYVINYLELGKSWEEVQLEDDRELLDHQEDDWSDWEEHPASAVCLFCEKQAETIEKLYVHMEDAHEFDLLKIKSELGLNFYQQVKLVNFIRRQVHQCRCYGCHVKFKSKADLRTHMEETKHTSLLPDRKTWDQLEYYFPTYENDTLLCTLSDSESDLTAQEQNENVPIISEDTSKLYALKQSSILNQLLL
# UniProt Q9UL40: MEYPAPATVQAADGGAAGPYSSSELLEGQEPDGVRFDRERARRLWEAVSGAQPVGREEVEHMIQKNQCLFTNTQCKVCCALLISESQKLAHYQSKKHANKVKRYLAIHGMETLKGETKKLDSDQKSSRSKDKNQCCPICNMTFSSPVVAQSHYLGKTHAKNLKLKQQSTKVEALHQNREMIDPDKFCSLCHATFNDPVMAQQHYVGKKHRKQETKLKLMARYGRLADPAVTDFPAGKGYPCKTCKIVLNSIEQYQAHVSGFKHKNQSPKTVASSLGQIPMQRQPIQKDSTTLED
# UniProt Q8TF68: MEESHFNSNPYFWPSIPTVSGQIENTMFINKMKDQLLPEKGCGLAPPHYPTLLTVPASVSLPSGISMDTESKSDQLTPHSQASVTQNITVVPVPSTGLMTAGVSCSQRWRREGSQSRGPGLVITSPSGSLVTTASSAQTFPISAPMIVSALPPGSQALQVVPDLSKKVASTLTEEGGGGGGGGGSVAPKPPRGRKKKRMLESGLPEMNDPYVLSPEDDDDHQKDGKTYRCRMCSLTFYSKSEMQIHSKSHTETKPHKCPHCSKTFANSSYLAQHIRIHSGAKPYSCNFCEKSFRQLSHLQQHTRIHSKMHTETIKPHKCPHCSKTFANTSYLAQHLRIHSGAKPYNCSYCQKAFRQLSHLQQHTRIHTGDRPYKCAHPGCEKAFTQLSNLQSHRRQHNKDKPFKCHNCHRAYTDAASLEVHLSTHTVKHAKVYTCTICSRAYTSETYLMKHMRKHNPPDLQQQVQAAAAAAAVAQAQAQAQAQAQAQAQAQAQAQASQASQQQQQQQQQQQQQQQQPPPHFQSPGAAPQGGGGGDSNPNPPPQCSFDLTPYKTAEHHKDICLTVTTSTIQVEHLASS
# UniProt Q96IQ9: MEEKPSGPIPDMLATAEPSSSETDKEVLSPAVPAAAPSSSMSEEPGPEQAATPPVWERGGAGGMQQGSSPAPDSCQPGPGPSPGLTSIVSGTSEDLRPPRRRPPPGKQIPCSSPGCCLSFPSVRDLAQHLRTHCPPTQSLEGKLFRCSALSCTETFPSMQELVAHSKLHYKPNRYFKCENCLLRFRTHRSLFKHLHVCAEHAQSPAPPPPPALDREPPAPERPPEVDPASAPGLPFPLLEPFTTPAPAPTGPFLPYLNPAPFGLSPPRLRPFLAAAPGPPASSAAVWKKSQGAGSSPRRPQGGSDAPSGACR
# UniProt Q8NAF0: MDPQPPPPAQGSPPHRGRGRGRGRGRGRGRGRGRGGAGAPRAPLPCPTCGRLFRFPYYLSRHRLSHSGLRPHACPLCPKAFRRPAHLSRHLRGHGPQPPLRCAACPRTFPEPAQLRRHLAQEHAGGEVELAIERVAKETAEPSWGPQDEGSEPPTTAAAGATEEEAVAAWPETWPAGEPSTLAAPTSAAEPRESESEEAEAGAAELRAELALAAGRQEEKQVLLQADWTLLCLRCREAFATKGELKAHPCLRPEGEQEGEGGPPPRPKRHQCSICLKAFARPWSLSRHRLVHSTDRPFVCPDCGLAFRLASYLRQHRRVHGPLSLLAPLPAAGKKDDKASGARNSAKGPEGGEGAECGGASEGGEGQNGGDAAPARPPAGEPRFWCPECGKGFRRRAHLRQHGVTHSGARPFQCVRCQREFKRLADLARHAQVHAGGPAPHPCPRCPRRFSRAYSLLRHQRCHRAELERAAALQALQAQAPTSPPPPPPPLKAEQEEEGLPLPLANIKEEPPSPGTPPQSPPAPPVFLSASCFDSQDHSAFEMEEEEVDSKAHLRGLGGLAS
# UniProt Q9UK33: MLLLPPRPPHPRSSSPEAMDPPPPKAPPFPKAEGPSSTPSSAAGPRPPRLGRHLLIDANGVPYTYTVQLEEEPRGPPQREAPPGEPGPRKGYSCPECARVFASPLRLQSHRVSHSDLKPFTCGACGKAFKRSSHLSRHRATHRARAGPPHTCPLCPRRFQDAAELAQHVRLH
# UniProt Q96PM9: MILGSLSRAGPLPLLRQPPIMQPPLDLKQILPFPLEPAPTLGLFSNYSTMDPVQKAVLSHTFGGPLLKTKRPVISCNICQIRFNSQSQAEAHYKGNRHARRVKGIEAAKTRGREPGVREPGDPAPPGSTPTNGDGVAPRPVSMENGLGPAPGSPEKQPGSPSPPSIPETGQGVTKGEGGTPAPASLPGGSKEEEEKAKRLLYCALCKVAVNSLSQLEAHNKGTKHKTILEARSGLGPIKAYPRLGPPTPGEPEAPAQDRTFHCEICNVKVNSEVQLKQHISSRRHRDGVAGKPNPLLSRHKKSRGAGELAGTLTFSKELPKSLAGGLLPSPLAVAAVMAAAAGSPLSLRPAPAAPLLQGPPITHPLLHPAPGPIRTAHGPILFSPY
# UniProt Q96ME7: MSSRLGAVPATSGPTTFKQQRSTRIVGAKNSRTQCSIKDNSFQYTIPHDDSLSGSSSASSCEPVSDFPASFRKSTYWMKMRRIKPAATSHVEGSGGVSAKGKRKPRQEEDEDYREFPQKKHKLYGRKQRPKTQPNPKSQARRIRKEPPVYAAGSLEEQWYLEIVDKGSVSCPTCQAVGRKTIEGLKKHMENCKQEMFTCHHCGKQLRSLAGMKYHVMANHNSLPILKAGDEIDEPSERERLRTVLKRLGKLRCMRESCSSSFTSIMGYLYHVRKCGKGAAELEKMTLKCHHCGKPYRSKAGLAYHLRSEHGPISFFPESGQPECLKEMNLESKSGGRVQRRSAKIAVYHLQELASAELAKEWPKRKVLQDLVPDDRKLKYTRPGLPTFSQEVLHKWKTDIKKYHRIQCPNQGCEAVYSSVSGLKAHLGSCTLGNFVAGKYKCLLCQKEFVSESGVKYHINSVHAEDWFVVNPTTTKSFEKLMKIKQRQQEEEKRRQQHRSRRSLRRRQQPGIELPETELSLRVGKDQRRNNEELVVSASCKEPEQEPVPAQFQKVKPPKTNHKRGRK
# UniProt Q9H609: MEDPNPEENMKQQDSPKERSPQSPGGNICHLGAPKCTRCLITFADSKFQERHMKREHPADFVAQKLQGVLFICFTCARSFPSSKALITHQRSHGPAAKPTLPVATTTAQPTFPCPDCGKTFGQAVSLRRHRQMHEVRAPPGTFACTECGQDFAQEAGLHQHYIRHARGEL
# UniProt Q8NB15: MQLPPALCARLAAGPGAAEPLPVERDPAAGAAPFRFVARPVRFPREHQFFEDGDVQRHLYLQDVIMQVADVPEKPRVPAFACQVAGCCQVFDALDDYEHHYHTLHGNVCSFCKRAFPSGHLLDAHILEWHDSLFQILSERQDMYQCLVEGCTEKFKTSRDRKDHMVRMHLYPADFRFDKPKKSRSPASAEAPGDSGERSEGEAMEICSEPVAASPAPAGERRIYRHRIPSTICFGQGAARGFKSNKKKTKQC
# UniProt Q8N0Y2: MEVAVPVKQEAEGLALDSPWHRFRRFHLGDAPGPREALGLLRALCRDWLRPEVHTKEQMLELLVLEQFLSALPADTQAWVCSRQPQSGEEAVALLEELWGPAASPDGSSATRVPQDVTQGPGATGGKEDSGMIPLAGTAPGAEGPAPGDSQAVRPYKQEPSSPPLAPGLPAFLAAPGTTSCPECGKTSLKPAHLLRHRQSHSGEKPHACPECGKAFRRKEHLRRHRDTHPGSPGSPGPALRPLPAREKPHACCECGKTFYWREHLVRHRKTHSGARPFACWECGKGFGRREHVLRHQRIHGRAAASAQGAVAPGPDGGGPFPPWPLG
# UniProt Q5VUA4: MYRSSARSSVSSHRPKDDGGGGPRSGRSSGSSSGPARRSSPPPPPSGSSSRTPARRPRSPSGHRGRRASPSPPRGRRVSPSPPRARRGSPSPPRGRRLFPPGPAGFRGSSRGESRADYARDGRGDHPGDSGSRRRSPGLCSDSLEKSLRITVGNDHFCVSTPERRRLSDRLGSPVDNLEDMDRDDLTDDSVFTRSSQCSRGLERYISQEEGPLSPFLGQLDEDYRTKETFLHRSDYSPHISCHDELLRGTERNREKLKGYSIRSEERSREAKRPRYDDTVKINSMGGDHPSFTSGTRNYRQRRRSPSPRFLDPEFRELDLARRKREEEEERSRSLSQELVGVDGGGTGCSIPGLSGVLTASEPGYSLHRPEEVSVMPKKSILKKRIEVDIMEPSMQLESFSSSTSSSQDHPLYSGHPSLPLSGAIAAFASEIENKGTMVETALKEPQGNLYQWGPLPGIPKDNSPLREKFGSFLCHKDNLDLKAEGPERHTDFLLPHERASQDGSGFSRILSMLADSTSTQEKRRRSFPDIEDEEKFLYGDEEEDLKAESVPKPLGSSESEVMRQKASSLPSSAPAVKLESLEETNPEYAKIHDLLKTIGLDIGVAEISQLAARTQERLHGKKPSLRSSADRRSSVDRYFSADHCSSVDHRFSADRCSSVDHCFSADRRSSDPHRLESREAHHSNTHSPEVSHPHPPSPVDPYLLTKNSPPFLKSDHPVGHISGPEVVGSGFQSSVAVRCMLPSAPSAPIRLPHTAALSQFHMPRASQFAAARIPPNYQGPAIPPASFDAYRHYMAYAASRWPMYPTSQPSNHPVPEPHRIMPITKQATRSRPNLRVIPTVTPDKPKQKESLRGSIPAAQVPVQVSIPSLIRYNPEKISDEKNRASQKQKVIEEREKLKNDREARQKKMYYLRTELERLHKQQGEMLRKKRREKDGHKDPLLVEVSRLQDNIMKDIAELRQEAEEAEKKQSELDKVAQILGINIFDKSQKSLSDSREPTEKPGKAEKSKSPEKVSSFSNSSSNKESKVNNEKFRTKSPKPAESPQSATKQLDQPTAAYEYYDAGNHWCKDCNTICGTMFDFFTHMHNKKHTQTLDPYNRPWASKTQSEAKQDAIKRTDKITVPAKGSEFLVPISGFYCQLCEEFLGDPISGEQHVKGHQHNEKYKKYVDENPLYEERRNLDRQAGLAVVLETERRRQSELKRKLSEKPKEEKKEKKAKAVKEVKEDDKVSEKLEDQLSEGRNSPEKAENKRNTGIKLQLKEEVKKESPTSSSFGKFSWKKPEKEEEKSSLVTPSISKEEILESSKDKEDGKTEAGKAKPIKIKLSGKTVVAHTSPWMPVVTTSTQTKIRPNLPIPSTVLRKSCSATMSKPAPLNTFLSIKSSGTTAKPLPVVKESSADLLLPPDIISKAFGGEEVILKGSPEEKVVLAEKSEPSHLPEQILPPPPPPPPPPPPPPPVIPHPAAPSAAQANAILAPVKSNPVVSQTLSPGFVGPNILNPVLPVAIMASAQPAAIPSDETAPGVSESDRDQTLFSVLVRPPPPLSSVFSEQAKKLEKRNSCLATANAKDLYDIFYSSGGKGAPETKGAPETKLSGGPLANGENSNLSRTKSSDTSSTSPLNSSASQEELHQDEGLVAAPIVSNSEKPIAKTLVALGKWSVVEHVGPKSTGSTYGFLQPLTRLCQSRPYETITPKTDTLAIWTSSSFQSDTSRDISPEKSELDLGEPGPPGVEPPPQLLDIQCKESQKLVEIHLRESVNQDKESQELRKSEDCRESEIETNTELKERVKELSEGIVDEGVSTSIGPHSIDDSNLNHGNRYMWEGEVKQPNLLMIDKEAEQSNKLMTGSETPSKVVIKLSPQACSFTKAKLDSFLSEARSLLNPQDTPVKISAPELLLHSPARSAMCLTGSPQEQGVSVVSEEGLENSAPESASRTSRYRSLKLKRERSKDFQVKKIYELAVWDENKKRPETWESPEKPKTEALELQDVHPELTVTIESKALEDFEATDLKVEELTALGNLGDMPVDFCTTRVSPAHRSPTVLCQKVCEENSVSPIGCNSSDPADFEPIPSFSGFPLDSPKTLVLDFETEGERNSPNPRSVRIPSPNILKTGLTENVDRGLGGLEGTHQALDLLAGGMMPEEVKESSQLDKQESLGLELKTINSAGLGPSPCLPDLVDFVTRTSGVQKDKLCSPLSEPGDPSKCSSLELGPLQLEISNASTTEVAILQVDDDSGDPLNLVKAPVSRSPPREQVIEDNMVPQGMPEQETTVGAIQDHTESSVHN
# UniProt Q9P0T4: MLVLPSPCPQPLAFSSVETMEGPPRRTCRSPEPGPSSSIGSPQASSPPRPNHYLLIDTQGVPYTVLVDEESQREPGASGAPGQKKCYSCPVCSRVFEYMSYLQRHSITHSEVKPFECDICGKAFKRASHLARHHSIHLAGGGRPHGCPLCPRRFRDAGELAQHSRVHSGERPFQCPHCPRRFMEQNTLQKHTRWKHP
# The other results are listed elsewhere or left out.
# Tests used:
# Assay in all cases: log2 fold change, soluble protein after heating vs DMSO (PISA); higher = thermal stabilisation; K562 cells, 10 uM, 30 min; active = over 0.2 and 3.5 SD of the protein, either way, in both replicates (recomputed)
# ZNF277 = ZNF277 (UniProt Q9NRM2)
# How it was run: (§1)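 K562 cells at 2×10^6 cells/mL were given 10 μM compound for 30 min. Aliquots then went through 3 min of heating across 48°C-58°C, were pooled, and were extracted in PBS with 0.5% NP-40 at 4°C, and the supernatant after 21,000xg for 90 min was quantified by TMTpro 16plex LC-MS/MS with channel sums equalised. Thermal stability relative to control samples, from duplicates, is given as log2 fold change.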
# ZNF316 = ZNF316 (UniProt A6NFI3)
# How it was run: as §1
# ZNF330 = ZNF330 (UniProt Q9Y3S2)
# How it was run: as §1
# ZNF346 = ZNF346 (UniProt Q9UL40)
# How it was run: as §1
# ZNF384 = ZNF384 (UniProt Q8TF68)
# How it was run: as §1
# ZNF414 isoform 2 = ZNF414 isoform 2 (UniProt Q96IQ9)
# How it was run: as §1
# ZNF428 = ZNF428 (UniProt M0QXZ5)
# How it was run: as §1
# ZNF512B = ZNF512B (UniProt Q96KM6)
# How it was run: as §1
# ZNF579 = ZNF579 (UniProt Q8NAF0)
# How it was run: as §1
# ZNF580 = ZNF580 (UniProt Q9UK33)
# How it was run: as §1
# ZNF385A = ZNF385A (UniProt Q96PM9)
# How it was run: as §1
# ZNF512 = ZNF512 (UniProt Q96ME7)
# How it was run: as §1
# ZNF576 = ZNF576 (UniProt Q9H609)
# How it was run: as §1
# ZNF511 isoform 1 = ZNF511 isoform 1 (UniProt Q8NB15)
# How it was run: as §1
# ZNF444 = ZNF444 (UniProt Q8N0Y2)
# How it was run: as §1
# ZNF318 = ZNF318 (UniProt Q5VUA4)
# How it was run: as §1
# ZNF581 = ZNF581 (UniProt Q9P0T4)
# How it was run: as §1
# ZNF280D = ZNF280D (UniProt Q6N043)
# How it was run: as §1
structure (smiles),measurement,setting,value
CC(C)N(C[C@H]1O[C@@H](n2cnc3c(N)ncnc32)[C@H](O)[C@@H]1O)[C@H]1C[C@@H](CCc2nc3cc(C(C)(C)C)ccc3[nH]2)C1 [pinometostat],log2 fold change,ZNF277,inactive: 0.267
same,log2 fold change,ZNF316,inactive: -0.056
same,log2 fold change,ZNF330,inactive: 0.01
same,log2 fold change,ZNF346,inactive: -0.008
same,log2 fold change,ZNF384,inactive: 0.167
same,log2 fold change,ZNF414 isoform 2,inactive: 0.001
same,log2 fold change,ZNF428,inactive: 0.029
same,log2 fold change,ZNF512B,inactive: 0.305
same,log2 fold change,ZNF579,inactive: 0.02
same,log2 fold change,ZNF580,inactive: -0.072
CNC(=O)c1ccccc1Nc1nc(Nc2ccc(N3CCOCC3)cc2OC)ncc1Cl,log2 fold change,ZNF277,inactive: 0.009
same,log2 fold change,ZNF330,inactive: -0.001
same,log2 fold change,ZNF346,inactive: 0.017
same,log2 fold change,ZNF384,inactive: -0.052
same,log2 fold change,ZNF385A,inactive: -0.008
same,log2 fold change,ZNF428,inactive: -0.002
same,log2 fold change,ZNF512,inactive: 0.151
same,log2 fold change,ZNF512B,inactive: -0.061
same,log2 fold change,ZNF576,inactive: -0.487
same,log2 fold change,ZNF579,inactive: -0.019
Cc1ccc2c(=O)c3ccccc3n(CCCN)c2c1C,log2 fold change,ZNF277,inactive: -0.126
same,log2 fold change,ZNF330,inactive: -0.112
same,log2 fold change,ZNF346,inactive: 0.091
same,log2 fold change,ZNF384,inactive: -0.058
same,log2 fold change,ZNF385A,inactive: -0.192
same,log2 fold change,ZNF428,inactive: -0.145
same,log2 fold change,ZNF511 isoform 1,inactive: 0.17
same,log2 fold change,ZNF579,inactive: -0.168
same,log2 fold change,ZNF580,inactive: -0.196
NC1(Cc2ccc(Cl)cc2)CCN(c2ncnc3[nH]ccc23)CC1,log2 fold change,ZNF277,inactive: -0.319
same,log2 fold change,ZNF330,inactive: -0.041
same,log2 fold change,ZNF346,inactive: 0.025
same,log2 fold change,ZNF384,inactive: -0.035
same,log2 fold change,ZNF385A,inactive: 0.39
same,log2 fold change,ZNF428,inactive: 0.022
same,log2 fold change,ZNF511 isoform 1,inactive: 0.079
same,log2 fold change,ZNF579,inactive: -0.064
same,log2 fold change,ZNF580,inactive: 0.183
C#Cc1cccc(Nc2ncnc3cc(OCCOC)c(OCCOC)cc23)c1 [erlotinib],log2 fold change,ZNF277,inactive: 0.097
same,log2 fold change,ZNF330,inactive: -0.048
same,log2 fold change,ZNF346,inactive: -0.04
same,log2 fold change,ZNF384,inactive: 0.016
same,log2 fold change,ZNF385A,inactive: -0.054
same,log2 fold change,ZNF428,inactive: -0.014
same,log2 fold change,ZNF512,inactive: -0.048
same,log2 fold change,ZNF512B,inactive: 0.038
same,log2 fold change,ZNF576,inactive: -0.129
same,log2 fold change,ZNF579,inactive: -0.056
c1cc(OCCN2CCCCC2)cc(-c2n[nH]c3ccc(-c4nnc[nH]4)cc23)c1,log2 fold change,ZNF277,inactive: -0.275
same,log2 fold change,ZNF316,inactive: 0.036
same,log2 fold change,ZNF330,inactive: -0.025
same,log2 fold change,ZNF346,inactive: -0.038
same,log2 fold change,ZNF384,inactive: -0.03
same,log2 fold change,ZNF385A,inactive: -0.019
same,log2 fold change,ZNF414 isoform 2,inactive: -0.181
same,log2 fold change,ZNF428,inactive: 0.056
same,log2 fold change,ZNF511 isoform 1,inactive: -0.043
same,log2 fold change,ZNF579,inactive: 0.078
same,log2 fold change,ZNF580,inactive: -0.083
C[C@@H](Oc1cc(-c2cnn(C3CCNCC3)c2)cnc1N)c1c(Cl)ccc(F)c1Cl [crizotinib],log2 fold change,ZNF277,inactive: -0.181
same,log2 fold change,ZNF316,inactive: 0.04
same,log2 fold change,ZNF330,inactive: 0.01
same,log2 fold change,ZNF346,inactive: -0.043
same,log2 fold change,ZNF384,inactive: -0.214
same,log2 fold change,ZNF414 isoform 2,inactive: -0.272
same,log2 fold change,ZNF428,inactive: 0.044
same,log2 fold change,ZNF512B,inactive: -0.006
same,log2 fold change,ZNF579,inactive: 0.112
same,log2 fold change,ZNF580,inactive: 0.164
O=C(Nc1cccc(Nc2ncc(Br)c(NCCc3cnc[nH]3)n2)c1)N1CCCC1,log2 fold change,ZNF277,inactive: 0.034
same,log2 fold change,ZNF330,inactive: 0.002
same,log2 fold change,ZNF346,inactive: -0.011
same,log2 fold change,ZNF384,inactive: -0.058
same,log2 fold change,ZNF385A,inactive: -0.119
same,log2 fold change,ZNF428,inactive: -0.025
same,log2 fold change,ZNF511 isoform 1,inactive: 0.072
same,log2 fold change,ZNF579,active: -0.377
same,log2 fold change,ZNF580,inactive: 0.062
CC(C)c1cnn2c(NCc3ccccc3)cc(NCCCCCCN)nc12,log2 fold change,ZNF277,inactive: -0.3
same,log2 fold change,ZNF330,inactive: 0.029
same,log2 fold change,ZNF346,inactive: 0.249
same,log2 fold change,ZNF384,inactive: 0.051
same,log2 fold change,ZNF385A,inactive: 0.102
same,log2 fold change,ZNF428,inactive: 0.044
same,log2 fold change,ZNF512,inactive: 0.321
same,log2 fold change,ZNF512B,inactive: -0.001
same,log2 fold change,ZNF576,inactive: 0.276
same,log2 fold change,ZNF579,inactive: 0.054
COC(=O)N[C@@H](C)CNc1nccc(-c2cn(C(C)C)nc2-c2cc(Cl)cc(NS(C)(=O)=O)c2F)n1 [encorafenib],log2 fold change,ZNF277,inactive: -0.259
same,log2 fold change,ZNF316,inactive: 0.159
same,log2 fold change,ZNF330,inactive: -0.017
same,log2 fold change,ZNF346,inactive: 0.044
same,log2 fold change,ZNF384,inactive: 0.011
same,log2 fold change,ZNF385A,inactive: -0.054
same,log2 fold change,ZNF414 isoform 2,inactive: -0.2
same,log2 fold change,ZNF428,inactive: -0.033
same,log2 fold change,ZNF511 isoform 1,inactive: -0.03
same,log2 fold change,ZNF579,inactive: -0.187
same,log2 fold change,ZNF580,inactive: 0.143
CN1CCc2c(c3ccccc3n2Cc2ccc(C(=O)NO)cc2)C1 [Tubastatin A],log2 fold change,ZNF277,inactive: 0.275
same,log2 fold change,ZNF330,inactive: 0.054
same,log2 fold change,ZNF346,inactive: -0.06
same,log2 fold change,ZNF384,inactive: 0.051
same,log2 fold change,ZNF385A,inactive: -0.04
same,log2 fold change,ZNF428,inactive: 0.065
same,log2 fold change,ZNF511 isoform 1,inactive: -0.089
same,log2 fold change,ZNF579,inactive: 0.095
same,log2 fold change,ZNF580,inactive: -0.08
CC[C@@H]1C(=O)N(C)c2cnc(Nc3ccc(C(=O)NC4CCN(C)CC4)cc3OC)nc2N1C1CCCC1,log2 fold change,ZNF277,inactive: 0.328
same,log2 fold change,ZNF316,inactive: 0.076
same,log2 fold change,ZNF330,inactive: 0.005
same,log2 fold change,ZNF346,inactive: 0.135
same,log2 fold change,ZNF384,inactive: 0.289
same,log2 fold change,ZNF385A,inactive: 0.146
same,log2 fold change,ZNF414 isoform 2,inactive: 0.019
same,log2 fold change,ZNF428,inactive: -0.039
same,log2 fold change,ZNF511 isoform 1,inactive: -0.041
same,log2 fold change,ZNF579,inactive: -0.017
same,log2 fold change,ZNF580,inactive: 0.037
CNC(=O)c1ccc(Nc2ncc(C(F)(F)F)c(NCc3nccnc3N(C)S(C)(=O)=O)n2)cc1 [defactinib],log2 fold change,ZNF277,inactive: 0.161
same,log2 fold change,ZNF330,inactive: 0.023
same,log2 fold change,ZNF346,inactive: 0.156
same,log2 fold change,ZNF384,inactive: 0.18
same,log2 fold change,ZNF385A,inactive: 0.06
same,log2 fold change,ZNF414 isoform 2,inactive: -0.176
same,log2 fold change,ZNF428,inactive: -0.033
same,log2 fold change,ZNF444,inactive: 0.301
same,log2 fold change,ZNF511 isoform 1,inactive: -0.128
same,log2 fold change,ZNF579,inactive: 0.019
same,log2 fold change,ZNF580,inactive: -0.099
Cc1nc(Nc2ncc(C(=O)Nc3c(C)cccc3Cl)s2)cc(N2CCN(CCO)CC2)n1 [dasatinib],log2 fold change,ZNF277,inactive: 0.019
same,log2 fold change,ZNF318,inactive: -0.214
same,log2 fold change,ZNF330,inactive: 0.006
same,log2 fold change,ZNF346,inactive: 0.069
same,log2 fold change,ZNF385A,inactive: 0.015
same,log2 fold change,ZNF428,inactive: 0.009
same,log2 fold change,ZNF579,inactive: -0.148
same,log2 fold change,ZNF580,inactive: -0.085
same,log2 fold change,ZNF581,inactive: 0.178
O=C(CCCCCCNC(=O)c1cnc(N(c2ccccc2)c2ccccc2Cl)nc1)NO [citarinostat],log2 fold change,ZNF277,inactive: 0.306
same,log2 fold change,ZNF316,inactive: 0.281
same,log2 fold change,ZNF330,inactive: 0.018
same,log2 fold change,ZNF346,inactive: -0.06
same,log2 fold change,ZNF384,inactive: -0.258
same,log2 fold change,ZNF385A,inactive: -0.004
same,log2 fold change,ZNF414 isoform 2,inactive: 0.063
same,log2 fold change,ZNF428,inactive: -0.066
same,log2 fold change,ZNF511 isoform 1,inactive: 0.054
same,log2 fold change,ZNF579,inactive: -0.089
same,log2 fold change,ZNF580,inactive: -0.013
Cc1cc(SCc2sc(-c3ccc(C(F)(F)F)cc3)nc2C)ccc1OCC(=O)O,log2 fold change,ZNF277,inactive: 0.152
same,log2 fold change,ZNF318,inactive: -0.119
same,log2 fold change,ZNF330,inactive: 0.006
same,log2 fold change,ZNF346,inactive: 0
same,log2 fold change,ZNF385A,inactive: -0.008
same,log2 fold change,ZNF428,inactive: -0.034
same,log2 fold change,ZNF579,inactive: -0.009
same,log2 fold change,ZNF580,inactive: -0.301
same,log2 fold change,ZNF581,inactive: -0.029
CNCc1ccc(-c2[nH]c3cc(F)cc4c3c2CCNC4=O)cc1 [rucaparib],log2 fold change,ZNF277,inactive: 0
same,log2 fold change,ZNF316,inactive: -0.166
same,log2 fold change,ZNF330,inactive: 0.03
same,log2 fold change,ZNF346,inactive: 0.09
same,log2 fold change,ZNF384,inactive: 0.164
same,log2 fold change,ZNF385A,inactive: 0.08
same,log2 fold change,ZNF414 isoform 2,inactive: 0.043
same,log2 fold change,ZNF428,inactive: -0.032
same,log2 fold change,ZNF511 isoform 1,inactive: -0.006
same,log2 fold change,ZNF579,inactive: 0.01
same,log2 fold change,ZNF580,inactive: 0.136
CC1=C(C(=O)Nc2cc3cn[nH]c3cc2F)C(c2ccc(C(F)(F)F)cc2)CC(=O)N1 (stereo unspecified),log2 fold change,ZNF280D,inactive: 0.12
CN1CC[C@H](c2c(O)cc(O)c3c(=O)cc(-c4ccccc4Cl)oc23)[C@H](O)C1 [alvocidib],log2 fold change,ZNF318,inactive: 0.126
same,log2 fold change,ZNF581,inactive: 0.131
C[C@H](Nc1ncnc2nc[nH]c12)c1cc2cccc(Cl)c2c(=O)n1-c1ccccc1 [duvelisib],log2 fold change,ZNF318,inactive: 0.097
same,log2 fold change,ZNF581,inactive: -0.045
CCn1c(C(=O)N(C2CC2)C2CC2)cc2c3c(ncn3C)c(Nc3cc(C)n(C)n3)nc21,log2 fold change,ZNF576,inactive: 0.076

# Reformatted as tab-separated lines: part of the list above
structure (smiles)	measurement	setting	value
CNC(=O)c1ccc(Nc2ncc(C(F)(F)F)c(NCc3nccnc3N(C)S(C)(=O)=O)n2)cc1 [defactinib]	log2 fold change	ZNF511 isoform 1	inactive: -0.128
same	log2 fold change	ZNF579	inactive: 0.019
same	log2 fold change	ZNF580	inactive: -0.099
Cc1nc(Nc2ncc(C(=O)Nc3c(C)cccc3Cl)s2)cc(N2CCN(CCO)CC2)n1 [dasatinib]	log2 fold change	ZNF277	inactive: 0.019
same	log2 fold change	ZNF318	inactive: -0.214
same	log2 fold change	ZNF330	inactive: 0.006
same	log2 fold change	ZNF346	inactive: 0.069
